Counter-ions that a name gives are not always drawn. The list shows a part of the results. Hit calls seldom repeat between salt and free forms of one compound.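 Kinases were expressed as nanoluciferase fusions in K562 cells and luminescence was read every 4 h between 2 and 18 h as percent of control, DMSO set to 100% and a positive control to 0%. A time point counts as decreased when the signal drops significantly (2 sigma). The hit call is the authors' own, does not follow from the count of time points alone, and its rule is not shown.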
What was measured:
Assay in all cases: kinase-Nluc reporter destabilization hit call (1 = scored as downregulated) (binary); higher = compound decreases kinase abundance
Conditions in all cases: K562; 2-18 h
MAPK1 = MAPK1 (UniProt P28482)
MAPK4 = MAPK4 (UniProt P31152)
MAPKAPK2 = MAPKAPK2 (UniProt P49137)
MKNK1 = MKNK1 (UniProt Q9BUB5)
NTRK2 = NTRK2 (UniProt Q16620)
NTRK3 = NTRK3 (UniProt Q16288)
PAK4 = PAK4 (UniProt O96013)
PBK = PBK (UniProt Q96KB5)
PDGFRB = PDGFRB (UniProt P09619)
PDK1 = PDK1 (UniProt Q15118)
PDPK1 = PDPK1 (UniProt O15530)
PIK4CA = PIK4CA (UniProt P42356)
PIK4CB = PIK4CB (UniProt Q9UBF8)
PLK1 = PLK1 (UniProt P53350)
PRKAA1 = PRKAA1 (UniProt Q13131)
PRKCA = PRKCA (UniProt P17252)
PTK2 = PTK2 (UniProt Q05397)
PTK2B = PTK2B (UniProt Q14289)
RAF1 = RAF1 (UniProt P04049)
[1] = target: RAF1_S257L (clone: RAF1_mut) (UniProt P04049)

Protein sequences, listed by entry. Tags and fused reporters are not part of them. Lines headed by an entry give the natural chain unless they say otherwise; changes in a name come on top.
UniProt P28482, whole entry: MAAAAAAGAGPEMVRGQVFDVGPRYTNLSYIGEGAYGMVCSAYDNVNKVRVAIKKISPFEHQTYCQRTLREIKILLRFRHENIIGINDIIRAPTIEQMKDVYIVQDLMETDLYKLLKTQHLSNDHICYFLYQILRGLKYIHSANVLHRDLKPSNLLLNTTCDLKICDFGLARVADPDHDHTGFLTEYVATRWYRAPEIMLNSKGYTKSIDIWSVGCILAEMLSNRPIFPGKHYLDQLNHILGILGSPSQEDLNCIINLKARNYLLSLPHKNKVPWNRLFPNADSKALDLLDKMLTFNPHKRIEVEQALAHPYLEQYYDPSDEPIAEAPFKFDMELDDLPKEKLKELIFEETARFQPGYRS
UniProt P31152, whole entry: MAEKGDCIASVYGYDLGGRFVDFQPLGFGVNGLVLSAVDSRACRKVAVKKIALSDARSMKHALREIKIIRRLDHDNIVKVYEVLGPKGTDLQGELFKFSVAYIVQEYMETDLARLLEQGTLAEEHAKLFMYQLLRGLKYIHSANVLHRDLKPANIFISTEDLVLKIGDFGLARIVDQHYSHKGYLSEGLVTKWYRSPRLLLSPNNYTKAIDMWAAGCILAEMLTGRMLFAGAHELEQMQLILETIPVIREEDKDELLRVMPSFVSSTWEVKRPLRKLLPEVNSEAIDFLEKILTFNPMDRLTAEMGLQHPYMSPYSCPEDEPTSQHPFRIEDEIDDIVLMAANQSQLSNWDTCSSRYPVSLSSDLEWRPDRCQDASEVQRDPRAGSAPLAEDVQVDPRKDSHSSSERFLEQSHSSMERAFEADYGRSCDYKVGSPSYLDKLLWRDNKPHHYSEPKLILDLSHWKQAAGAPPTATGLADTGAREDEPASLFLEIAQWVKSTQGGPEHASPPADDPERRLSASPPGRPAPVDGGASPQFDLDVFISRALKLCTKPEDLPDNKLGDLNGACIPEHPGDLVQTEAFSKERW
UniProt P49137, whole entry, looked up: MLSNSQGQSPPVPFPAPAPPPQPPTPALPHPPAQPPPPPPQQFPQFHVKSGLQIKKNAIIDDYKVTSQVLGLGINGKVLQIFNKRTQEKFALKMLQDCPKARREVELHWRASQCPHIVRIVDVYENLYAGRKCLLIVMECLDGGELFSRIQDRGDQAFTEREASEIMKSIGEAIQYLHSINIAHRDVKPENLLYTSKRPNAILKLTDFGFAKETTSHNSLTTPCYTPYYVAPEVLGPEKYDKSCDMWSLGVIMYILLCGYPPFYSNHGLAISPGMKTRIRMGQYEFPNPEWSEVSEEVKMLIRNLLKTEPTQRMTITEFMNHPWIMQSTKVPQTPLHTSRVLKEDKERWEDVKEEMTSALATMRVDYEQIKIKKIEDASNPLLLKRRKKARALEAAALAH
UniProt Q9BUB5: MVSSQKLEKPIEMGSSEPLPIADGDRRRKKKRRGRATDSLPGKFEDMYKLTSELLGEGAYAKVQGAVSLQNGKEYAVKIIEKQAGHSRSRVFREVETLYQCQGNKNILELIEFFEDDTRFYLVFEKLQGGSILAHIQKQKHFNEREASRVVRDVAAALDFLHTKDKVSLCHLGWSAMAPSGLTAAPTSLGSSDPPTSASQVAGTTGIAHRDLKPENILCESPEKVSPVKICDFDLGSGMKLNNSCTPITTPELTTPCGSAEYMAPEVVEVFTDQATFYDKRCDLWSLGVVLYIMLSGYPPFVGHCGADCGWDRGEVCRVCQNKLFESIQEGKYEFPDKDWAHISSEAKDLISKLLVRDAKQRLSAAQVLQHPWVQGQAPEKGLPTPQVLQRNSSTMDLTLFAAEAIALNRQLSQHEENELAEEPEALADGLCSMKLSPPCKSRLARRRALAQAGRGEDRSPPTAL
UniProt Q16288, whole entry, looked up: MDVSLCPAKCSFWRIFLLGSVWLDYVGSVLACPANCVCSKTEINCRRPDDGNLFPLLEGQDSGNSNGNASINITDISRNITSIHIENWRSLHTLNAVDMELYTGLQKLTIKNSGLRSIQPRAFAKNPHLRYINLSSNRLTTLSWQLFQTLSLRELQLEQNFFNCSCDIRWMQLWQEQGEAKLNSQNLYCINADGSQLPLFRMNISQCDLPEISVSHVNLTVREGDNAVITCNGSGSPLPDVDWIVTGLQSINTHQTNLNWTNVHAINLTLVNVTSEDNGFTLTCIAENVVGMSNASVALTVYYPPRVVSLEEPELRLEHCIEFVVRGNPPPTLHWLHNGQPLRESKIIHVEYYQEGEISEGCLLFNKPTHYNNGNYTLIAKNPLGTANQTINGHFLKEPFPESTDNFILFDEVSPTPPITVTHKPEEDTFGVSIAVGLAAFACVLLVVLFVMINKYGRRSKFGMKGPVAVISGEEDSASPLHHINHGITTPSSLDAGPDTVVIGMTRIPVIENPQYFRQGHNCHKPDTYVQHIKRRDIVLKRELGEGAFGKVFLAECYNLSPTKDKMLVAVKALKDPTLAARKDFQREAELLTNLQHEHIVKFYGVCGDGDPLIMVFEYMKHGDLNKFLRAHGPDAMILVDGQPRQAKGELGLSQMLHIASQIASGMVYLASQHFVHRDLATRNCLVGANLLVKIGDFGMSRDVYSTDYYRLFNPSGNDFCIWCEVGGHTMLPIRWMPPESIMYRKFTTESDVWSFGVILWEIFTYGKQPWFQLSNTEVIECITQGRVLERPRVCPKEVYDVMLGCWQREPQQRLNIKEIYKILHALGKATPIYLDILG
UniProt O96013: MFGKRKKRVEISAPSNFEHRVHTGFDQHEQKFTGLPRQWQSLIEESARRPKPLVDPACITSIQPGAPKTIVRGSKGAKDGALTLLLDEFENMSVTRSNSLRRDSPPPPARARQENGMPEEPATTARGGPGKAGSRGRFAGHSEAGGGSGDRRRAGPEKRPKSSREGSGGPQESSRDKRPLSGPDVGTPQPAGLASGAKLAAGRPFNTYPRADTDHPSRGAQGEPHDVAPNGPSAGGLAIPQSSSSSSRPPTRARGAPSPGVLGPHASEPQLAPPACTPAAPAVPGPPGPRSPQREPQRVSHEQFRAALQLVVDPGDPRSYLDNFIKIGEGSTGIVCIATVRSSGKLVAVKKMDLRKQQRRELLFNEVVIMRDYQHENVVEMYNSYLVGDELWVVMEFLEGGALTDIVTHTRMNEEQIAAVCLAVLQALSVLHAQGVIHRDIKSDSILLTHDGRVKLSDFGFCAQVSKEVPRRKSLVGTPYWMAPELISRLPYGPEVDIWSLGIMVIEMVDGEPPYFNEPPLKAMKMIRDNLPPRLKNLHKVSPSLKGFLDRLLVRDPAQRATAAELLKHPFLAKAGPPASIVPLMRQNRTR
UniProt Q96KB5: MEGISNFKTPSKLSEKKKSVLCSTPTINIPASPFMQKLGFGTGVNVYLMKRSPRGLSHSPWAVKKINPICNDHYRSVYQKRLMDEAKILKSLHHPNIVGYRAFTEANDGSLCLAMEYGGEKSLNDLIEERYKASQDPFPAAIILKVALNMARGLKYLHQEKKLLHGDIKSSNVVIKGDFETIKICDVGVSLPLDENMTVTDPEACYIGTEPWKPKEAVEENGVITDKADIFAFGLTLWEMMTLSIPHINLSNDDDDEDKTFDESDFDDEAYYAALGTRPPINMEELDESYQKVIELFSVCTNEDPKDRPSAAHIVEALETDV
UniProt Q15118, whole entry, looked up: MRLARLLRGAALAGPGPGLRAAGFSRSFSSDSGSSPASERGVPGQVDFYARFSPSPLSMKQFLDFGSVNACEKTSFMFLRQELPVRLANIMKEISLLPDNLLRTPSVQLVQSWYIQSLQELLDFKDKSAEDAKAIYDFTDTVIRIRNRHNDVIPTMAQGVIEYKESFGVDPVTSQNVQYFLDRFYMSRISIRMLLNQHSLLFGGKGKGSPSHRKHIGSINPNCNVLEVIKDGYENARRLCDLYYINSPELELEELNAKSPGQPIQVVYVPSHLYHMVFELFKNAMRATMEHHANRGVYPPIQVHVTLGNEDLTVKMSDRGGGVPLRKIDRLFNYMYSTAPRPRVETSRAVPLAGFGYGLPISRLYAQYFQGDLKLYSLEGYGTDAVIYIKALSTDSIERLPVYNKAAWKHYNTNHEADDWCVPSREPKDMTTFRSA
UniProt P53350, whole entry: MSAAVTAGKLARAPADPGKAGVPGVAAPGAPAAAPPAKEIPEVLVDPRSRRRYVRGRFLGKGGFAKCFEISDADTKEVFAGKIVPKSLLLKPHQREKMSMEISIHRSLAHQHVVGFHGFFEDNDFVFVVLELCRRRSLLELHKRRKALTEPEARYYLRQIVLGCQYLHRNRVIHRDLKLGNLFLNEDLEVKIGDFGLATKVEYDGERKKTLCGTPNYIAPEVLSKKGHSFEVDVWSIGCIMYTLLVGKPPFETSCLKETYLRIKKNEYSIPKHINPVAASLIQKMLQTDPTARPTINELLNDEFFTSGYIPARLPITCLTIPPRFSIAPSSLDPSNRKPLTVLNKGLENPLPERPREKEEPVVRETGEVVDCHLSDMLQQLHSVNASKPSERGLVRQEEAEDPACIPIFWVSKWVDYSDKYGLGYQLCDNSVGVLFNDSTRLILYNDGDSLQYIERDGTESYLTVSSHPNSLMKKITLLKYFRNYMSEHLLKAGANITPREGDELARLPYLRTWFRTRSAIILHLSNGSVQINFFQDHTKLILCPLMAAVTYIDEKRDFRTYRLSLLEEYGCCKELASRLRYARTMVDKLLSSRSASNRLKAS
UniProt Q13131: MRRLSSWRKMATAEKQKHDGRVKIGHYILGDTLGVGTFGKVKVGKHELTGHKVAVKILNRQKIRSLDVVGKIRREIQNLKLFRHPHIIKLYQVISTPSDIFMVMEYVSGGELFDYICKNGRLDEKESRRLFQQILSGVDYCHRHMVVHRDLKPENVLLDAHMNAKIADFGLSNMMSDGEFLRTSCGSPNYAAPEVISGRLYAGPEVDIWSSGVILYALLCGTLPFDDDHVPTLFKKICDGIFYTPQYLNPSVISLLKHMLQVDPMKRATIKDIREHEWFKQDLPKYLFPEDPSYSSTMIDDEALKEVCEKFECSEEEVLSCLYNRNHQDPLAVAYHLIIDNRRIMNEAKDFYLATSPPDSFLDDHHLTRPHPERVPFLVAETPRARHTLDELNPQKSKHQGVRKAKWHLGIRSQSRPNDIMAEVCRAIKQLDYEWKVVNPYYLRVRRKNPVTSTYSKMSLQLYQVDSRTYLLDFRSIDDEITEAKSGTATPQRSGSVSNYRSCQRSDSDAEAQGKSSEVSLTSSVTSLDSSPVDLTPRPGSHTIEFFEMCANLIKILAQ
UniProt Q14289, whole entry, looked up: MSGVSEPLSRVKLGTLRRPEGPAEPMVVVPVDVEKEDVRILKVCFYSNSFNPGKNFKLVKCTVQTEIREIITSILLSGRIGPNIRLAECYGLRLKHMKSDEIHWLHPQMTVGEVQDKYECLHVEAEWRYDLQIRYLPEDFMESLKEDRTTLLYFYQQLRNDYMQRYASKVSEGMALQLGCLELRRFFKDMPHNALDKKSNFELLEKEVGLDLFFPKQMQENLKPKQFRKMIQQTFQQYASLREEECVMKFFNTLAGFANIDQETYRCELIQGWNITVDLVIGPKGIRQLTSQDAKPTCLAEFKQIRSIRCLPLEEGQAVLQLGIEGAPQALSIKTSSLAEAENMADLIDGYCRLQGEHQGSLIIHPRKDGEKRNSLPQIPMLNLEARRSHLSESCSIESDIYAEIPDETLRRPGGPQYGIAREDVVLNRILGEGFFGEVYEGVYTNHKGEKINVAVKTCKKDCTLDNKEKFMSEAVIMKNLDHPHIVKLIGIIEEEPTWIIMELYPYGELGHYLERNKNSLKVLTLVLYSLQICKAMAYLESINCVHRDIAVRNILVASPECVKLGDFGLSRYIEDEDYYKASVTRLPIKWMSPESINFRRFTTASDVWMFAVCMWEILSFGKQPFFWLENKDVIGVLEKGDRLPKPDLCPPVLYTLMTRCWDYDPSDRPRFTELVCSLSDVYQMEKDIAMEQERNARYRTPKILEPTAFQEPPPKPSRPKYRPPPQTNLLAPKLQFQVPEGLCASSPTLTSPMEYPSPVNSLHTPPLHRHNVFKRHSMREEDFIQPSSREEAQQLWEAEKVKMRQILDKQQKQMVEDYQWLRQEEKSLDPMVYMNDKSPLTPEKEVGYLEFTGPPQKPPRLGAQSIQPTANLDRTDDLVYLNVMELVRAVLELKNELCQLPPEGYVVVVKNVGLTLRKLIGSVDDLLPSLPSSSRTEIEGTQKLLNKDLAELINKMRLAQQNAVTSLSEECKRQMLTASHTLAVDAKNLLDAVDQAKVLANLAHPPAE

Measured: kinase-Nluc reporter destabilization hit call

CCc1c(C(=O)NNC(=O)[C@H](O)c2cc(F)cc(F)c2)ccc(O)c1C (10 µM)
inactive: MAPK1 = 0 | MAPK4 = 0 | MAPKAPK2 = 0 | MKNK1 = 0 | NTRK2 = 0 | NTRK3 = 0 | PAK4 = 0 | PBK 0 | PDGFRB 0 | PDK1 = 0 | PDPK1 = 0 | PIK4CA 0 | PIK4CB 0 | PLK1 = 0 | PRKAA1 = 0 | PRKCA 0 | PTK2 = 0 | PTK2B 0 | RAF1 = 0 | [1] 0

NC(=O)c1c(NC(=O)C2CC2)sc2c1CCCC2 (10 µM)
inactive: MAPK1 = 0 | MAPK4 = 0 | MAPKAPK2 = 0 | MKNK1 = 0 | NTRK2 = 0 | NTRK3 = 0 | PAK4 = 0 | PBK 0 | PDGFRB 0 | PDK1 = 0 | PDPK1 = 0 | PIK4CA 0 | PIK4CB 0 | PLK1 = 0 | PRKAA1 = 0 | PRKCA 0 | PTK2 = 0 | PTK2B 0 | RAF1 = 0 | [1] 0

CC(C)c1cc2c(c(O)c1O)[C@@]13CCCC(C)(C)[C@@H]1C[C@@H]2OC3=O [Carnosol] (2.5 µM)
inactive: MAPK1 = 0 | MAPK4 = 0 | MAPKAPK2 = 0 | MKNK1 = 0 | NTRK2 = 0 | NTRK3 = 0 | PAK4 = 0 | PBK 0 | PDGFRB 0 | PDK1 = 0 | PDPK1 = 0 | PIK4CA 0 | PIK4CB 0 | PLK1 = 0 | PRKAA1 = 0 | PRKCA 0 | PTK2 = 0 | PTK2B 0 | RAF1 = 0 | [1] 0

Nc1ccc(C(=O)Nc2cccc(-c3nc(N4CCOCC4)c4oc5ncccc5c4n3)c2)cn1 (10 µM)
active: MKNK1 = 1
inactive: MAPK1 = 0 | MAPK4 = 0 | MAPKAPK2 = 0 | NTRK2 = 0 | NTRK3 = 0 | PAK4 = 0 | PBK 0 | PDGFRB 0 | PDK1 = 0 | PDPK1 = 0 | PIK4CA 0 | PIK4CB 0 | PLK1 = 0 | PRKAA1 = 0 | PRKCA 0 | PTK2 = 0 | PTK2B 0 | RAF1 = 0 | [1] 0

Arranged by SMILES length (descending): some entries from above.
CC(C)c1cc2c(c(O)c1O)[C@@]13CCCC(C)(C)[C@@H]1C[C@@H]2OC3=O [Carnosol] (2.5 µM)
inactive: MAPK1 = 0 | MAPK4 = 0 | MAPKAPK2 = 0 | MKNK1 = 0 | NTRK2 = 0 | NTRK3 = 0 | PAK4 = 0 | PBK 0 | PDGFRB 0 | PDK1 = 0 | PDPK1 = 0 | PIK4CA 0 | PIK4CB 0 | PLK1 = 0 | PRKAA1 = 0 | PRKCA 0 | PTK2 = 0 | PTK2B 0 | RAF1 = 0 | [1] 0

CCc1c(C(=O)NNC(=O)[C@H](O)c2cc(F)cc(F)c2)ccc(O)c1C (10 µM)
inactive: MAPK1 = 0 | MAPK4 = 0 | MAPKAPK2 = 0 | MKNK1 = 0 | NTRK2 = 0 | NTRK3 = 0 | PAK4 = 0 | PBK 0 | PDGFRB 0 | PDK1 = 0 | PDPK1 = 0 | PIK4CA 0 | PIK4CB 0 | PLK1 = 0 | PRKAA1 = 0 | PRKCA 0 | PTK2 = 0 | PTK2B 0 | RAF1 = 0 | [1] 0

NC(=O)c1c(NC(=O)C2CC2)sc2c1CCCC2 (10 µM)
inactive: MAPK1 = 0 | MAPK4 = 0 | MAPKAPK2 = 0 | MKNK1 = 0 | NTRK2 = 0 | NTRK3 = 0 | PAK4 = 0 | PBK 0 | PDGFRB 0 | PDK1 = 0 | PDPK1 = 0 | PIK4CA 0 | PIK4CB 0 | PLK1 = 0 | PRKAA1 = 0 | PRKCA 0 | PTK2 = 0 | PTK2B 0 | RAF1 = 0 | [1] 0

(listing goes on)

C[C@@H]1CN(Cc2ccc(F)cc2)[C@@H](C)CN1C(=O)c1cc2c(C(=O)C(=O)N(C)C)cn(C)c2cc1Cl [Talmapimod] (10 µM)
inactive: MAPK1 = 0 | MAPK4 = 0 | MAPKAPK2 = 0 | MKNK1 = 0 | NTRK2 = 0 | NTRK3 = 0 | PAK4 = 0 | PBK 0 | PDGFRB 0 | PDK1 = 0 | PDPK1 = 0 | PIK4CA 0 | PIK4CB 0 | PLK1 = 0 | PRKAA1 = 0 | PRKCA 0 | PTK2 = 0 | PTK2B 0 | RAF1 = 0 | [1] 0

CN1CCC(Nc2nc(Nc3ccc(Oc4ccccc4)cc3)c3c(=O)[nH]cc(Br)c3n2)CC1 (2.5 µM)
inactive: MAPK1 = 0 | MAPK4 = 0 | MAPKAPK2 = 0 | MKNK1 = 0 | NTRK2 = 0 | NTRK3 = 0 | PAK4 = 0 | PBK 0 | PDGFRB 0 | PDK1 = 0 | PDPK1 = 0 | PIK4CA 0 | PIK4CB 0 | PLK1 = 0 | PRKAA1 = 0 | PRKCA 0 | PTK2 = 0 | PTK2B 0 | RAF1 = 0 | [1] 0

Oc1ccc(-c2cnc3ccc(NCc4ccco4)nn23)cc1 [IRAK inhibitor 2] (2.5 µM)
inactive: MAPK1 = 0 | MAPK4 = 0 | MAPKAPK2 = 0 | MKNK1 = 0 | NTRK2 = 0 | NTRK3 = 0 | PAK4 = 0 | PBK 0 | PDGFRB 0 | PDK1 = 0 | PDPK1 = 0 | PIK4CA 0 | PIK4CB 0 | PLK1 = 0 | PRKAA1 = 0 | PRKCA 0 | PTK2 = 0 | PTK2B 0 | RAF1 = 0 | [1] 0

O=C1Cc2ccccc2N1 [Oxindole] (10 µM)
inactive: MAPK1 = 0 | MAPK4 = 0 | MAPKAPK2 = 0 | MKNK1 = 0 | NTRK2 = 0 | NTRK3 = 0 | PAK4 = 0 | PBK 0 | PDGFRB 0 | PDK1 = 0 | PDPK1 = 0 | PIK4CA 0 | PIK4CB 0 | PLK1 = 0 | PRKAA1 = 0 | PRKCA 0 | PTK2 = 0 | PTK2B 0 | RAF1 = 0 | [1] 0

Nc1ccc(-c2cccc(C(=O)Nc3cnc4nc(N5CCOCC5)oc4c3)n2)cn1 (10 µM)
inactive: MAPK1 = 0 | MAPK4 = 0 | MAPKAPK2 = 0 | MKNK1 = 0 | NTRK2 = 0 | NTRK3 = 0 | PAK4 = 0 | PBK 0 | PDGFRB 0 | PDK1 = 0 | PDPK1 = 0 | PIK4CA 0 | PIK4CB 0 | PLK1 = 0 | PRKAA1 = 0 | PRKCA 0 | PTK2 = 0 | PTK2B 0 | RAF1 = 0 | [1] 0

CNc1cc2c(Nc3cccc(Br)c3)ncnc2cn1 (10 µM)
inactive: MAPK1 = 0 | MAPK4 = 0 | MAPKAPK2 = 0 | MKNK1 = 0 | NTRK2 = 0 | NTRK3 = 0 | PAK4 = 0 | PBK 0 | PDGFRB 0 | PDK1 = 0 | PDPK1 = 0 | PIK4CA 0 | PIK4CB 0 | PLK1 = 0 | PRKAA1 = 0 | PRKCA 0 | PTK2 = 0 | PTK2B 0 | RAF1 = 0 | [1] 0

CC/C(=C(\c1ccccc1)c1ccc(OCCNC)cc1)c1ccccc1 [N-Desmethyltamoxifen (hydrochloride)] (2.5 µM)
inactive: MAPK1 = 0 | MAPK4 = 0 | MAPKAPK2 = 0 | MKNK1 = 0 | NTRK2 = 0 | NTRK3 = 0 | PAK4 = 0 | PBK 0 | PDGFRB 0 | PDK1 = 0 | PDPK1 = 0 | PIK4CA 0 | PIK4CB 0 | PLK1 = 0 | PRKAA1 = 0 | PRKCA 0 | PTK2 = 0 | PTK2B 0 | RAF1 = 0 | [1] 0

CC1(C)C=Cc2c(ccc(C(=O)/C=C/c3ccc(O)cc3)c2O)O1 [4-Hydroxylonchocarpin] (10 µM)
inactive: MAPK1 = 0 | MAPK4 = 0 | MAPKAPK2 = 0 | MKNK1 = 0 | NTRK2 = 0 | NTRK3 = 0 | PAK4 = 0 | PBK 0 | PDGFRB 0 | PDK1 = 0 | PDPK1 = 0 | PIK4CA 0 | PIK4CB 0 | PLK1 = 0 | PRKAA1 = 0 | PRKCA 0 | PTK2 = 0 | PTK2B 0 | RAF1 = 0 | [1] 0

COCCNc1cc(NC(=O)N2CCCc3cc(CN4CCOCC4=O)c(C=O)nc32)ncc1C#N (10 µM)
inactive: MAPK1 = 0 | MAPK4 = 0 | MAPKAPK2 = 0 | MKNK1 = 0 | NTRK2 = 0 | NTRK3 = 0 | PAK4 = 0 | PBK 0 | PDGFRB 0 | PDK1 = 0 | PDPK1 = 0 | PIK4CA 0 | PIK4CB 0 | PLK1 = 0 | PRKAA1 = 0 | PRKCA 0 | PTK2 = 0 | PTK2B 0 | RAF1 = 0 | [1] 0

Nc1ccc(-c2nc3ccc(-c4nc5ccc(N)cc5[nH]4)cc3[nH]2)cc1 (10 µM)
inactive: MAPK1 = 0 | MAPK4 = 0 | MAPKAPK2 = 0 | MKNK1 = 0 | NTRK2 = 0 | NTRK3 = 0 | PAK4 = 0 | PBK 0 | PDGFRB 0 | PDK1 = 0 | PDPK1 = 0 | PIK4CA 0 | PIK4CB 0 | PLK1 = 0 | PRKAA1 = 0 | PRKCA 0 | PTK2 = 0 | PTK2B 0 | RAF1 = 0 | [1] 0

O=c1cc(N2CCOCC2)oc2c(-c3cccc4c3sc3ccccc34)cccc12 (10 µM)
inactive: MAPK1 = 0 | MAPK4 = 0 | MAPKAPK2 = 0 | MKNK1 = 0 | NTRK2 = 0 | NTRK3 = 0 | PAK4 = 0 | PBK 0 | PDGFRB 0 | PDK1 = 0 | PDPK1 = 0 | PIK4CA 0 | PIK4CB 0 | PLK1 = 0 | PRKAA1 = 0 | PRKCA 0 | PTK2 = 0 | PTK2B 0 | RAF1 = 0 | [1] 0

COc1cc2ncnc(Nc3cc(Br)c(O)c(Br)c3)c2cc1OC (2.5 µM)
inactive: MAPK1 = 0 | MAPK4 = 0 | MAPKAPK2 = 0 | MKNK1 = 0 | NTRK2 = 0 | NTRK3 = 0 | PAK4 = 0 | PBK 0 | PDGFRB 0 | PDK1 = 0 | PDPK1 = 0 | PIK4CA 0 | PIK4CB 0 | PLK1 = 0 | PRKAA1 = 0 | PRKCA 0 | PTK2 = 0 | PTK2B 0 | RAF1 = 0 | [1] 0

Nc1nc(Nc2ccc3c(c2)CC[C@@H](N2CCCC2)CC3)nn1-c1cc2c(nn1)-c1ccccc1CCC2 [Bemcentinib] (2.5 µM)
inactive: MAPK1 = 0 | MAPK4 = 0 | MAPKAPK2 = 0 | MKNK1 = 0 | NTRK2 = 0 | NTRK3 = 0 | PAK4 = 0 | PBK 0 | PDGFRB 0 | PDK1 = 0 | PDPK1 = 0 | PIK4CA 0 | PIK4CB 0 | PLK1 = 0 | PRKAA1 = 0 | PRKCA 0 | PTK2 = 0 | PTK2B 0 | RAF1 = 0 | [1] 0

CCOC(=O)c1c(C)[nH]c(C=C2C(=O)Nc3ccccc32)c1C (10 µM)
inactive: MAPK1 = 0 | MAPK4 = 0 | MAPKAPK2 = 0 | MKNK1 = 0 | NTRK2 = 0 | NTRK3 = 0 | PAK4 = 0 | PBK 0 | PDGFRB 0 | PDK1 = 0 | PDPK1 = 0 | PIK4CA 0 | PIK4CB 0 | PLK1 = 0 | PRKAA1 = 0 | PRKCA 0 | PTK2 = 0 | PTK2B 0 | RAF1 = 0 | [1] 0

Reference: the supplement of paper PMC12823440, “Inhibitors supercharge kinase turnover through native proteolytic circuits” (Nature, 2025)
